Data published in the supplement of paper PMC10849652.
Some of the results follow.

Amino acid sequences for entries named in this document (tags omitted). A change or cut given only in a name is not applied to a line headed by its entry.
UniProt O60361, whole entry, looked up: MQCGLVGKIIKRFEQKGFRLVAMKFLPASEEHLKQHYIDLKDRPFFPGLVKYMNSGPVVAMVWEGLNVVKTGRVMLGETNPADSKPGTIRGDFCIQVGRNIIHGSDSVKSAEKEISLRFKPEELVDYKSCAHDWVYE
UniProt O60551: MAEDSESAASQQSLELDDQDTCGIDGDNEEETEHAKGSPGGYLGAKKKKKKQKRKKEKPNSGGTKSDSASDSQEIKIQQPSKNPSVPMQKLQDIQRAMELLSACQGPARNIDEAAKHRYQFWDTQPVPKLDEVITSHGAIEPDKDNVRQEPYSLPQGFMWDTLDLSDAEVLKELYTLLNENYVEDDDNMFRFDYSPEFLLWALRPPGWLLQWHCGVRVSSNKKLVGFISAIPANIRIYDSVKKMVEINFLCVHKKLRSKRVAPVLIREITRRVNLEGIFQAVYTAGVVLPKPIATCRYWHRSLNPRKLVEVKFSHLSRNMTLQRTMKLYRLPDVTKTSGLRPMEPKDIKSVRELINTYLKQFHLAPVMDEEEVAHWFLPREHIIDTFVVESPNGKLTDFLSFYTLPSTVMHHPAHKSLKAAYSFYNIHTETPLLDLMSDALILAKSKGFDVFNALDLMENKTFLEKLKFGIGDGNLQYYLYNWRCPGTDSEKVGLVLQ
UniProt Q14980: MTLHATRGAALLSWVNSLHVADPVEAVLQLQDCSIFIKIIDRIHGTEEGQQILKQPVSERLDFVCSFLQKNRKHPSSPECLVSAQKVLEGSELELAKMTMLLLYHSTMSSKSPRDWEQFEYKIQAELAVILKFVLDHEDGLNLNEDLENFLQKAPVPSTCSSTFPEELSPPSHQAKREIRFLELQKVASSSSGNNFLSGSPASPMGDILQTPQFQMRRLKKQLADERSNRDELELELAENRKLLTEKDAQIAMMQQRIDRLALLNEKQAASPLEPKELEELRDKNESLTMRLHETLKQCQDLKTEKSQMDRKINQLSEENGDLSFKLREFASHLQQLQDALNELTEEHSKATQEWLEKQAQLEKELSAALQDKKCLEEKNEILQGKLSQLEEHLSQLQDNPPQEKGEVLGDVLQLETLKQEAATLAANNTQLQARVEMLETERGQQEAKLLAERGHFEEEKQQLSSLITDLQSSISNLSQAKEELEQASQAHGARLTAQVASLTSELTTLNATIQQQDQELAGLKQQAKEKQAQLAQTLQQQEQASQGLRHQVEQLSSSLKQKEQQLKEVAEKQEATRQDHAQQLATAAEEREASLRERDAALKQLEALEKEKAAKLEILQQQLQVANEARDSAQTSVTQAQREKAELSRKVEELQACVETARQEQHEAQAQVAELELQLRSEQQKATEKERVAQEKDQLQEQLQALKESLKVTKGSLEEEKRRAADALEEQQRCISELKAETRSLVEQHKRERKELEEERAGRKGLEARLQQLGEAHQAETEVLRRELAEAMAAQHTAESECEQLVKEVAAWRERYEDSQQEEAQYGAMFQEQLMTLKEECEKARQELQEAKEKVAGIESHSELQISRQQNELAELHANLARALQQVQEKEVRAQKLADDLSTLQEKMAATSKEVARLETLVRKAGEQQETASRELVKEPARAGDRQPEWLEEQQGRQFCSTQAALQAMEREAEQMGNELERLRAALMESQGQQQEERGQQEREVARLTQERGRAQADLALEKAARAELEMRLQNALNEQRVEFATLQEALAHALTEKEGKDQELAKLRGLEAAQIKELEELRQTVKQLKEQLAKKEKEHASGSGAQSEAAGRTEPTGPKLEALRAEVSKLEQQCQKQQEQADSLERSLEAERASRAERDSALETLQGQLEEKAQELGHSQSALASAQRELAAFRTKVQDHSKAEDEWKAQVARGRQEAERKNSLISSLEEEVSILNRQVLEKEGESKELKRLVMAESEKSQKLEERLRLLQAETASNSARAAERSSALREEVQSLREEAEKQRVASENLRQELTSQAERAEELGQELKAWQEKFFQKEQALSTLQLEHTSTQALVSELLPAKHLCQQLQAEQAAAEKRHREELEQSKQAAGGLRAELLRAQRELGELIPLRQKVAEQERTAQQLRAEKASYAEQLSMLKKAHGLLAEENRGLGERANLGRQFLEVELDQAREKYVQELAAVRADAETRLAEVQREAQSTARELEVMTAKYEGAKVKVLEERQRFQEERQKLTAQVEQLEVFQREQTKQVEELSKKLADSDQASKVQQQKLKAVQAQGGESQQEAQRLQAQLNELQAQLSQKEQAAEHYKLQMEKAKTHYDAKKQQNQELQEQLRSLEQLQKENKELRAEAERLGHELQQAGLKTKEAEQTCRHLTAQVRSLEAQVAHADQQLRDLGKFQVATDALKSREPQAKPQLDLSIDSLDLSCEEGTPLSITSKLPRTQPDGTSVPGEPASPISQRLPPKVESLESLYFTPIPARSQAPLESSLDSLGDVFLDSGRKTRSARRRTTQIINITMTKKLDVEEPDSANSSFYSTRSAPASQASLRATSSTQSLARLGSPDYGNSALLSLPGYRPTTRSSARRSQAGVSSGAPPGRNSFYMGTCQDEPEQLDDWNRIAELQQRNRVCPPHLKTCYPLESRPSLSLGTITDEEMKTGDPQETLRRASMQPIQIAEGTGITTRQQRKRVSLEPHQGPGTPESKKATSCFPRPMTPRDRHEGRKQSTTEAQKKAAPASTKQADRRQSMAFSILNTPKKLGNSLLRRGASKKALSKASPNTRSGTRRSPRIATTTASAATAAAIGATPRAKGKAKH
UniProt P49116: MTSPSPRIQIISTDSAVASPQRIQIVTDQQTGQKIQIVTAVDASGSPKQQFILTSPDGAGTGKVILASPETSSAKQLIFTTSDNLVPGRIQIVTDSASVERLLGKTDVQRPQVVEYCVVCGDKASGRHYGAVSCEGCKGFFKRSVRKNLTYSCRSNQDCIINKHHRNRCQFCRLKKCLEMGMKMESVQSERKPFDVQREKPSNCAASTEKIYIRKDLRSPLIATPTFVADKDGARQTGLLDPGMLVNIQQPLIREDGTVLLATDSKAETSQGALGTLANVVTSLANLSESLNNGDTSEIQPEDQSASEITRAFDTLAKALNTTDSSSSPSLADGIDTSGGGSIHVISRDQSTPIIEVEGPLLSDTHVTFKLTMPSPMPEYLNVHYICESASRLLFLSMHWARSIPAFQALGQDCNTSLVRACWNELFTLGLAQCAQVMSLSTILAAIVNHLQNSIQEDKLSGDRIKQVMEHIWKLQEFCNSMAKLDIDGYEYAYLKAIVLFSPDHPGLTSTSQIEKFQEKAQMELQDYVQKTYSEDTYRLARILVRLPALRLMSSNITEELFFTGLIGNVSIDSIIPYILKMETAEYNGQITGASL
UniProt Q8WVJ2: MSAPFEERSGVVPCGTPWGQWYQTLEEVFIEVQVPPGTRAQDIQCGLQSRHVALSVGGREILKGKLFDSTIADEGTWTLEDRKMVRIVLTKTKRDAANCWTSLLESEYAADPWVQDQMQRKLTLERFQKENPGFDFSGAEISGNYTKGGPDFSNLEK
UniProt Q96T66: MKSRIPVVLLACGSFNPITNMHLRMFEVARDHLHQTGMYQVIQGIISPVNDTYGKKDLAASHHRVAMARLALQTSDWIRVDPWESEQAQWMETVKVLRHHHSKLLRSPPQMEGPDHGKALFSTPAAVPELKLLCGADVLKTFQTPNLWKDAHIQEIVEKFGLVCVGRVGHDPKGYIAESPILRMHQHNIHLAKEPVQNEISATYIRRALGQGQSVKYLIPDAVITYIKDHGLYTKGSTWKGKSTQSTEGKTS
UniProt O75607: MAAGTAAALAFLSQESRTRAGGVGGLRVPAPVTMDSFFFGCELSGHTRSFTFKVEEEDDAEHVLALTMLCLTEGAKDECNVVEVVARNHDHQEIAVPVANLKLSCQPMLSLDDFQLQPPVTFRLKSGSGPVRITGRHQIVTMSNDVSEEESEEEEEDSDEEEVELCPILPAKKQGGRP
UniProt Q13287: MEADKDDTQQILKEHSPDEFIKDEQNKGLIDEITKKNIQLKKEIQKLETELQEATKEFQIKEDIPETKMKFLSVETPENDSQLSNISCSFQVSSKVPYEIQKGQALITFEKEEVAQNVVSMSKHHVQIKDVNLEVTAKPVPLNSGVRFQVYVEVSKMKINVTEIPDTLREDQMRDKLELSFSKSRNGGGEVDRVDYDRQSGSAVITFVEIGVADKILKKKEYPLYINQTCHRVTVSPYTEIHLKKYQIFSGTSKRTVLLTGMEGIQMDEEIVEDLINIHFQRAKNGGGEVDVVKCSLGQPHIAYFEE
UniProt Q9NV35: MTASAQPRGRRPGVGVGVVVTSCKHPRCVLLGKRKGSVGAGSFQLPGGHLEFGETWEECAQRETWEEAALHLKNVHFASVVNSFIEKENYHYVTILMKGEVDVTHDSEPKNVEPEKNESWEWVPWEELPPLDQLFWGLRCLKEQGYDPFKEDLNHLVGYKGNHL
UniProt Q9H1E3: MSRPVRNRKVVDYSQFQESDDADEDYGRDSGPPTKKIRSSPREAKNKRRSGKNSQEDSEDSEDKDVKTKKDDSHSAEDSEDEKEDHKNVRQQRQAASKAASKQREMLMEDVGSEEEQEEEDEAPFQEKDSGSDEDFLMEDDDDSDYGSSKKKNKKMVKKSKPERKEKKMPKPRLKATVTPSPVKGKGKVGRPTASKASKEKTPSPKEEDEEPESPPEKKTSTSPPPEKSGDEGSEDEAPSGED
UniProt P15559, whole entry, looked up: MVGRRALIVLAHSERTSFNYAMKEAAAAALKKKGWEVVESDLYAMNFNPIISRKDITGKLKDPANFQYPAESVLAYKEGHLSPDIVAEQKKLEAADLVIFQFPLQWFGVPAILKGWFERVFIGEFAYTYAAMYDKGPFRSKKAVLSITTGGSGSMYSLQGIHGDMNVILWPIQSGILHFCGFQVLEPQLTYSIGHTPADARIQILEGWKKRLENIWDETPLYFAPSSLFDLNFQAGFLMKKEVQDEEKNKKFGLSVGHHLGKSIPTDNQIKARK
UniProt Q9BRJ7: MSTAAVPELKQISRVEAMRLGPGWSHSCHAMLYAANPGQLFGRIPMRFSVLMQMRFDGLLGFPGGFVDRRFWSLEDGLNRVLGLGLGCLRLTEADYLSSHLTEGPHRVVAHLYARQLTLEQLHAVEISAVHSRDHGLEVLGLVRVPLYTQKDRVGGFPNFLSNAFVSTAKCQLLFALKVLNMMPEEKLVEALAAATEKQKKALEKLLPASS
UniProt Q9BSC4: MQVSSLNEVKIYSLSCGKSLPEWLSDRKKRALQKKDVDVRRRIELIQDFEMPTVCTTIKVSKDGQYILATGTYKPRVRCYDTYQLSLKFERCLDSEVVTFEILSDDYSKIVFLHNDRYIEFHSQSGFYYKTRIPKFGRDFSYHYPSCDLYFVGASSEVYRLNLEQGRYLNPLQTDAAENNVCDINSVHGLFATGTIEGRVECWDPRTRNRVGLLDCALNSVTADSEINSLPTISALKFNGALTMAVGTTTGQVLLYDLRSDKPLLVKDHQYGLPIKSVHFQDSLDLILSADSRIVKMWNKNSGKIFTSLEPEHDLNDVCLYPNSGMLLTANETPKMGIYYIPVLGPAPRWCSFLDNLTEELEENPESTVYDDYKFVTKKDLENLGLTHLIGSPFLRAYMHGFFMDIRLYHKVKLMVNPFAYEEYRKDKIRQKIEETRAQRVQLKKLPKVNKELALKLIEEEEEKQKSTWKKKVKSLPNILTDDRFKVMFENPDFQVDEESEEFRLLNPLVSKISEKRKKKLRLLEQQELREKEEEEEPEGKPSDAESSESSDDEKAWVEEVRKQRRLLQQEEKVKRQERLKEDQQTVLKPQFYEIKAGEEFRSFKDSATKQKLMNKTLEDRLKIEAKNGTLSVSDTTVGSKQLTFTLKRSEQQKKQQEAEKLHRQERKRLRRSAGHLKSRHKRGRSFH
UniProt P50583: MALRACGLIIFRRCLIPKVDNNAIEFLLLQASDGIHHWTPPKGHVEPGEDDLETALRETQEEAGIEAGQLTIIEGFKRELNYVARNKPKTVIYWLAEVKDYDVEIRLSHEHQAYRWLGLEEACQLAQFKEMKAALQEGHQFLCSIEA
UniProt Q9NPE3: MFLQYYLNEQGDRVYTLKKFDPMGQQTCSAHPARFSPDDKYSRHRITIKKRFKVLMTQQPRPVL
UniProt P15531, whole entry, looked up: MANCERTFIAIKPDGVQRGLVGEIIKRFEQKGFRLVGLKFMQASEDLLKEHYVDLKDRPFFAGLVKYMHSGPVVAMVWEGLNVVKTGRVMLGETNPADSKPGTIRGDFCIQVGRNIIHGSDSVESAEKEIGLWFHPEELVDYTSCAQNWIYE
UniProt Q9NZJ9: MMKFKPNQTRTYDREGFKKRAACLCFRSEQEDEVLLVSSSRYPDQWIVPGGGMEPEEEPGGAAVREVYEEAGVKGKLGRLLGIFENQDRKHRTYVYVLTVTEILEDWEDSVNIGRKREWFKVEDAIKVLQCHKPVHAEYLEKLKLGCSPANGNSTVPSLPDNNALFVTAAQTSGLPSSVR

Key:
Test in all cases: log2 fold change, soluble protein after heating vs DMSO (PISA); higher = thermal stabilisation; K562 lysate, 10 uM; active = over 0.2 and 3.5 SD of the protein, either way, in both replicates (recomputed)
[1] = compound: C1=CC=C(C=C1)[C@H](COC2=CC3=C(C=C2)NC(=O)N3)NC(=O)C4=CC=CN(C4=O)CC5=CC(=C(C=C5)F)F
In short: (§1)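 Quantification was by TMTpro 16plex LC-MS/MS with equalised channel sums, applied to the supernatant after 21,000xg for 90 min. Samples were crude K562 extract at 1 mg/mL protein in PBS pH 7.4 with 1 mM MgCl2, treated with 10 μM compound for 30 min, heated for 3 min across 48°C-58°C, pooled and brought to 0.5% NP-40 at 4°C. Values are log-two fold changes in thermal stability relative to solvent controls, from duplicates.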

[2] = compound: CC1=C(SC2=C1C(=N[C@H](C3=NN=C(N32)C)CC(=O)N)C4=CC=C(C=C4)Cl)C
In short: as §1

[3] = compound: CC1=C2C(=CC=C1)N=C(N(C2=O)C3=CC=CC=C3C)CN4C=NC5=C(N=CN=C54)N
In short: as §1

[4] = compound: Cc1sc2c(c1C)C(c1ccc(Cl)cc1)=N[C@@H](CC(=O)OC(C)(C)C)c1nnc(C)n1-2
In short: as §1

[5] = compound: c1ccc([C@@H]2C[C@H]2NC2CCNCC2)cc1
In short: as §1

Measured: log2 fold change

NT5C (UniProt J3KSX6)
inactive: [1] -0.045 | [2] 0.011

NOL6 (UniProt Q9H6R4)
inactive: [1] 0 | [2] -0.017 | [3] -0.018 | [4] -0.042 | [5] 0.023

NPLOC4 isoform 2 (UniProt Q8TAT6)
inactive: [1] 0.035 | [2] 0.017 | [3] 0.025 | [4] -0.012 | [5] -0.064

NT5C3A (UniProt Q9H0P0)
inactive: [1] 0.027 | [2] -0.011 | [3] 0.022 | [4] -0.006 | [5] -0.024

NME2P1 (UniProt O60361)
inactive: [1] 0.02 | [2] -0.049 | [3] 0.154 | [4] -0.183 | [5] -0.222

NMT2 (UniProt O60551)
inactive: [1] -0.025 | [2] 0.061 | [3] 0.018 | [4] 0.025 | [5] -0.043

NUMA1 (UniProt Q14980)
inactive: [1] 0.006 | [2] 0.02 | [3] 0.022 | [4] 0.019 | [5] 0.052

NSUN4 (UniProt Q96CB9)
inactive: [1] -0.248 | [2] 0.141 | [3] 0.04 | [4] -0.149

NRAS (UniProt P01111)
inactive: [1] -0.053 | [2] 0.003 | [3] 0.018 | [4] 0.019 | [5] 0.015

NR2C2 isoform 2 (UniProt P49116)
inactive: [1] -0.078 | [2] -0.08 | [3] -0.04 | [4] 0.243 | [5] 0.047

NUDCD2 (UniProt Q8WVJ2)
inactive: [1] 0.034 | [2] -0.006 | [3] 0.004 | [4] -0.011 | [5] -0.084

NOA1 (UniProt Q8NC60)
inactive: [1] -0.087 | [2] 0.099 | [3] 0.023 | [4] -0.014 | [5] -0.07

NMNAT3 (UniProt Q96T66)
inactive: [1] 0.035 | [2] -0.045

NPM3 (UniProt O75607)
inactive: [1] 0.172 | [2] -0.045 | [3] -0.009 | [4] -0.03 | [5] -0.157

NOL12 (UniProt Q9UGY1)
inactive: [1] 0.005 | [2] -0.001 | [3] -0.075 | [4] -0.003 | [5] 0.004

NMI (UniProt Q13287)
inactive: [1] 0.026 | [2] 0.013 | [3] 0.005 | [4] -0.01 | [5] -0.019

NUDT15 (UniProt Q9NV35)
inactive: [1] -0.024 | [2] -0.041 | [3] 0.001 | [4] -0.003 | [5] -0.02

NOLC1 isoform 2 (UniProt Q14978)
inactive: [1] -0.01 | [2] 0 | [3] -0.014 | [4] 0.016 | [5] -0.033

NT5DC1 (UniProt Q5TFE4)
inactive: [1] -0.01 | [2] 0.006 | [3] -0.05 | [4] 0.017 | [5] 0.001

NSUN6 (UniProt Q8TEA1)
inactive: [1] 0.018 | [2] 0 | [3] 0.03 | [4] -0.008 | [5] -0.003

NONO (UniProt Q15233)
inactive: [1] -0.047 | [2] 0.02 | [3] 0.015 | [4] 0.026 | [5] 0.074

NSFL1C isoform 5 (UniProt Q9UNZ2)
inactive: [1] 0.024 | [2] -0.027 | [3] -0.012 | [4] 0.02 | [5] 0.016

NOP9 (UniProt Q86U38)
inactive: [1] 0.004 | [2] 0.003 | [3] -0.061 | [4] -0.02 | [5] 0.181

NUCKS1 (UniProt Q9H1E3)
inactive: [1] 0.017 | [2] 0.008 | [3] -0.01 | [4] -0.055 | [5] -0.025

NQO1 (UniProt P15559)
active: [1] 0.433
inactive: [2] 0.025 | [3] 0.223 | [4] -0.008 | [5] -0.016

NUB1 (UniProt Q9Y5A7)
inactive: [1] -0.011 | [2] 0.029 | [3] 0.025 | [4] 0.013 | [5] 0.039

NUFIP2 (UniProt Q7Z417)
inactive: [1] 0.002 | [2] -0.006 | [3] 0.002 | [4] -0.004 | [5] -0.014

Reprinted from the results shown (four entries):
NSFL1C isoform 5 (UniProt Q9UNZ2)
inactive: [1] 0.024 | [2] -0.027 | [3] -0.012 | [4] 0.02 | [5] 0.016

NOP9 (UniProt Q86U38)
inactive: [1] 0.004 | [2] 0.003 | [3] -0.061 | [4] -0.02 | [5] 0.181

NUCKS1 (UniProt Q9H1E3)
inactive: [1] 0.017 | [2] 0.008 | [3] -0.01 | [4] -0.055 | [5] -0.025

NQO1 (UniProt P15559)
active: [1] 0.433
inactive: [2] 0.025 | [3] 0.223 | [4] -0.008 | [5] -0.016

The results go on:

NT5C (UniProt Q8TCD5)
inactive: [1] 0.014 | [2] 0.022 | [3] -0.031 | [4] -0.05 | [5] 0.017

NMT1 (UniProt P30419)
inactive: [1] 0.004 | [2] 0.002 | [3] -0.002 | [4] 0.011 | [5] 0.004

NME2 isoform 2 (UniProt P22392)
inactive: [1] 0.001 | [2] 0.016 | [3] -0.026 | [4] -0.01 | [5] -0.025

NRBP2 (UniProt Q9NSY0)
inactive: [1] -0.024 | [2] -0.009 | [3] 0.133 | [4] -0.057 | [5] 0.046

NT5C3B (UniProt Q969T7)
inactive: [1] 0.148 | [2] -0.054 | [3] 0.017 | [4] -0.004 | [5] -0.002

NSMCE2 (UniProt Q96MF7)
inactive: [1] 0.006 | [2] -0.009 | [3] 0.061 | [4] 0.101 | [5] -0.001

NOL7 (UniProt Q9UMY1)
inactive: [1] 0.056 | [2] -0.089 | [3] -0.052 | [4] 0.12 | [5] 0.05

NUDT21 (UniProt O43809)
inactive: [1] 0.017 | [2] -0.042 | [3] 0.004 | [4] 0.031 | [5] 0.058

NTAN1 (UniProt Q96AB6)
inactive: [1] 0.071 | [2] 0.01 | [3] 0.121 | [4] -0.045 | [5] -0.05

NRF1 isoform 4 (UniProt Q16656)
inactive: [1] 0.03 | [2] 0.015 | [3] 0.005 | [4] 0.069 | [5] 0.017

NNMT (UniProt P40261)
inactive: [1] 0.003 | [2] 0.05 | [3] 0.027 | [4] -0.011 | [5] -0.027

NRBF2 (UniProt Q96F24)
inactive: [1] -0.034 | [2] -0.037 | [3] -0.024 | [4] -0.007 | [5] 0.008

NPEPPS (UniProt P55786)
inactive: [1] -0.007 | [2] -0.002 | [3] -0.011 | [4] -0.012 | [5] 0.01

NSRP1 (UniProt Q9H0G5)
inactive: [1] 0.08 | [2] -0.014 | [3] -0.014 | [4] -0.011 | [5] 0.017

NUDT16L1 (UniProt Q9BRJ7)
inactive: [1] 0.016 | [2] -0.067 | [3] 0.054 | [4] -0.033 | [5] 0.022

NSMAF (UniProt Q92636)
inactive: [1] 0.048 | [2] -0.025 | [3] -0.001 | [4] -0.033 | [5] 0.012

NUDC (UniProt Q9Y266)
inactive: [1] 0.024 | [2] 0.008 | [3] -0.018 | [4] -0.013 | [5] 0.036

NUP133 (UniProt Q8WUM0)
inactive: [1] 0.05 | [2] 0.046 | [3] 0.014 | [4] 0.025 | [5] -0.052

NOP2 isoform 4 (UniProt P46087)
inactive: [1] 0.046 | [2] 0.002 | [3] 0.018 | [4] 0.017 | [5] 0.018

NOL10 (UniProt Q9BSC4)
inactive: [1] -0.043 | [2] -0.049 | [3] -0.032 | [4] -0.061 | [5] 0.18

NUDT2 (UniProt P50583)
inactive: [1] -0.008 | [2] 0.001 | [3] -0.011 | [4] 0.036 | [5] -0.033

NUBP1 (UniProt P53384)
inactive: [1] 0.019 | [2] -0.008 | [3] -0.021 | [4] 0.037 | [5] 0.035

NOP10 (UniProt Q9NPE3)
inactive: [1] 0.018 | [2] 0.189 | [3] -0.014 | [4] 0.004 | [5] -0.031

NME1 isoform 2 (UniProt P15531)
inactive: [1] 0.031 | [2] 0.067 | [3] -0.064 | [4] -0.005 | [5] 0.053

NOB1 (UniProt Q9ULX3)
inactive: [1] 0.004 | [2] -0.051 | [3] 0.038 | [4] -0.021 | [5] 0.13

NSA2 (UniProt O95478)
inactive: [1] 0.111 | [2] -0.135 | [3] -0.018 | [4] -0.042 | [5] 0.122

NUDT4 isoform 2 (UniProt Q9NZJ9)
inactive: [1] 0.009 | [2] -0.011 | [3] 0.01 | [4] 0.067 | [5] -0.026
